# Assay results taken from US20250295665A1, “SELECTIVE K-RAS INHIBITORS FOR THE ENHANCEMENT OF ADOPTIVE IMMUNOTHERAPIES” (H. LEE MOFFITT CANCER CENTER AND RESEARCH INSTITUTE INC., priority 2022, published 2025).
# For at least one compound, name, drawing or mass did not settle the structure.
# System: KRAS-G12C mutant cancer cells
# Test: TNFR1 surface expression by flow cytometry (anti-h TNFR1 antibody)
# Assay type: cell-based
# Conditions: AMG-510 100 nM or TRA 10 nM, 1 day
smiles,measurement,value
CC(=O)Nc1cccc(-n2c(=O)n(C3CC3)c(=O)c3c(Nc4ccc(I)cc4F)n(C)c(=O)c(C)c32)c1 [Trametinib],TNFR1 surface expression (response to TNFα),increasing TNFR1 surface expression
